# Earlier results, collected in patent publication US20080153822A1, “Methods of treating pain” (priority 2006, published 2008).
# At least one structure is not confirmed: it was looked up by name or label, or the drawing left a doubt.
# Test system: CDKs
# Conditions: Current Opinion in Pharmacology, 2003(3): 362-370; cited from earlier work
smiles,measurement,value
Cn1cnc2c(NCc3ccccc3)nc(NCCO)nc21 [olomoucine],inhibitory activity against CDKs 4 and 6,no inhibitory activity
same,selectivity for a specific CDK,"greater selectivity for CDKs 1, 2 and 5"
